From paper PMC4887032
No constants are given. Whether binding was seen depends on the method and setting. Some entries that bind do so weakly or less than the wild type.

Molecular target: T1, Bacillus amyloliquefaciens YknZ extracellular domain (B. amyloliquefaciens)
T1 sequence: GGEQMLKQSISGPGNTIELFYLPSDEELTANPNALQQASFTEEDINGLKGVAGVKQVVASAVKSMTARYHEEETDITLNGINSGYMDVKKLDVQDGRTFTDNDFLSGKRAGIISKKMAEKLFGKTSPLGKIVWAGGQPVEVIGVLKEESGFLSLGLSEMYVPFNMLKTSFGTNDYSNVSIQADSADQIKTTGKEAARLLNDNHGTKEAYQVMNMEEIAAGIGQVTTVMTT
Assay: pull-down; Ba YknZ ED coupled to CNBr-activated resin; 0.6 mg purified YknX with 20 μl resin in 200 μl 20 mM HEPES pH 7.5, 150 mM NaCl, 2 mM 2-mercaptoethanol, 2 h at 277 K; five washes; SDS-PAGE, Coomassie blue; uncoupled resin as control; both purified

binding: binds
B1: Bacillus amyloliquefaciens YknX (residues 34-378) (domain or fragment, UniProt A0A9P1JGR6 34-378)
chain: GEKVETGTMEKRKISSSVMVPGTLKFSKEQYVFYEADKGTLDKVKVKEGDKVKEGSSLVTYTNEQLNLDKEQNELTEQSKRLQIEQIEEKLRALNSKEKDLAKQVGEAEAQKQIESERTDLQLQQKTAEIELKQSDLQKQSLENQVANLTVKSEMDGTVISVNQEAASKKSDIQEPVIHIGDPEHLIVAGNLSEYDTLKVKKGQSVTITSDAIPDKTWKGRVAAVGLVPEQKSGAASGGNTEQAVQYPFQVKLIGNLPEGKPGFKLIMNIETDKRKADTLPSSAVKKDGDEHWVFTVKDGKAKRVKVKVGDTAKQLTEIKEGLSKDDKVILNPADGLTDGTDVKA
